Measured values reported in PubChem BioAssay AID192 (DTP/NCI, 2004).
The list shows only some results of the screen, not a fair sample: it is rich in T/C values a quarter to a half above the control, in often repeated tests (any T/C) and in doses without a T/C. Further doses and runs are listed elsewhere. T/C is the treated group as % of the vehicle group. Some doses have a count of surviving animals in place of a T/C: the source files T/C as zero there, which appears to mark a toxic dose or a test without result, not a measured value. Some doses without a T/C left all or most animals alive at the check, yet need not have been tolerated: the source hardly ever lists a survival T/C far under the control, and the zero likely stands for such cases as well. Survivors were counted at the toxicity check, usually on the fifth day, unless a day is given; later deaths do not show. Schedule codes are those of the source, taken here to give the interval after Q, in days (D) or hours (H), and the number of doses after X. Signs of the kind (2×) say how often a value occurs here. Where survival is the endpoint, this PubChem deposit counts one and a half times the control or more as active, and values a quarter to a half above the control carry no call in these data; other NCI protocols may use other cut-offs. Some T/C values carry the count of animals alive at the toxicity check (mostly the fifth day); without a count, all were alive then.

Tested on: BDF1 mice, B16 melanoma ip, median survival T/C
Assay: NCI In Vivo Anticancer Drug Screen. Data for tumor model B16 Melanoma (intraperitoneal) in B6D2F1 (BDF1) mice
Conditions: T/C endpoint: median survival time, higher T/C = longer survival
Summary of the method: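 Mice with transplantable tumors; drug vs vehicle groups; endpoint survival or tumor size; value = T/C.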

[1] = dose: 100.0 mg/kg/injection, schedule: Q01DX009 (ip), vehicle: saline
[2] = dose: 6.25 mg/kg/injection, schedule: Q01DX009 (ip), vehicle: Klucel (hydroxypropylcellulose) (HPC)
[3] = dose: 25.0 mg/kg/injection, schedule: Q01DX009 (ip), vehicle: Klucel (hydroxypropylcellulose) (HPC)
[4] = dose: 25.0 mg/kg/injection, schedule: Q01DX009 (ip), vehicle: saline with Tween-80
[5] = dose: 50.0 mg/kg/injection, schedule: Q01DX009 (ip), vehicle: Klucel (hydroxypropylcellulose) (HPC)
[6] = dose: 100.0 mg/kg/injection, schedule: Q01DX009 (ip), vehicle: saline with Tween-80
[7] = dose: 25.0 mg/kg/injection, schedule: Q01DX009 (ip), vehicle: saline
[8] = dose: 50.0 mg/kg/injection, schedule: Q01DX009 (ip), vehicle: saline
[9] = dose: 400.0 mg/kg/injection, schedule: Q01DX009 (ip), vehicle: Klucel (hydroxypropylcellulose) (HPC)

In the case of `COc1ccc2c(NCCCCCCCCNc3c4ccccc4nc4cc(OC)ccc34)c3ccccc3nc2c1`, the T/C (dose: 0.93 mg/kg/injection, schedule: Q01DX009 (ip), vehicle: distilled water + alcohol) was 139 % of control, the T/C (dose: 1.87 mg/kg/injection, schedule: Q01DX009 (ip), vehicle: distilled water + alcohol) was 145 % of control and the survivor count (dose: 7.5 mg/kg/injection, schedule: Q01DX009 (ip), vehicle: distilled water + alcohol) was 10 of 10. The survivor count (dose: 15.0 mg/kg/injection, schedule: Q01DX009 (ip), vehicle: distilled water + alcohol) was 5 of 10 and the survivor count (dose: 30.0 mg/kg/injection, schedule: Q01DX009 (ip), vehicle: distilled water + alcohol) was 1 of 10.

For `NNCCc1ccccc1`, the survivor count (dose: 6.25 mg/kg/injection, schedule: Q01DX009 (ip), vehicle: saline) was 8 of 10, the survivor count [1] was 3 of 10 and the survivor count (dose: 200.0 mg/kg/injection, schedule: Q01DX009 (ip), vehicle: saline) was 0 of 10. For the same compound, the survivor count (dose: 400.0 mg/kg/injection, schedule: Q01DX009 (ip), vehicle: saline) was 0 of 10.

In the case of `CC[n+]1ccc(Nc2ccc(/C=C/c3ccc4cc(Nc5cc[n+](CC)cc5)ccc4[n+]3CC)cc2)cc1`, the survivor count (dose: 20.0 mg/kg/injection, schedule: Q01DX009 (ip), vehicle: saline) was 0 of 10.

`CCCCCCCCCCCCCC(=O)OC12CC(C)C3(O)C(C=C(CO)C(O)C4(O)C(=O)C(C)=CC43)C1C2(C)C` (centres undefined) was tested, and the survivor count (dose: 0.06 mg/kg/injection, schedule: Q01DX009 (ip), vehicle: saline + alcohol) was 9 of 10, the survivor count (dose: 0.25 mg/kg/injection, schedule: Q01DX009 (ip), vehicle: saline + alcohol) was 10 of 10 and the survivor count (dose: 0.5 mg/kg/injection, schedule: Q01DX009 (ip), vehicle: saline + alcohol) was 10 of 10. The survivor count (dose: 1.0 mg/kg/injection, schedule: Q01DX009 (ip), vehicle: saline + alcohol) was 9 of 10.

In the case of `COc1cc(C=Nc2cccc(Br)c2)ccc1N(CCCl)CCCl`, the T/C (dose: 1.6 mg/kg/injection, schedule: Q01DX009 (ip), vehicle: saline with Tween-80) was 125 % of control, the T/C (dose: 3.12 mg/kg/injection, schedule: Q01DX009 (ip), vehicle: saline with Tween-80) was 145 % of control and the T/C [2] was 142 % of control [9 of 10 alive]. The T/C [3] was 131 % of control and the survivor count [4] was 10 of 10.

With `Cc1cnc(/C=N\NC(N)=S)c2cccc(N)c12` the T/C (dose: 12.5 mg/kg/injection, schedule: Q01DX009 (ip), vehicle: saline with Tween-80, evaluated on day 45) was 136 % of control, the T/C (dose: 12.5 mg/kg/injection, schedule: Q01DX009 (ip), vehicle: saline with Tween-80, evaluated on day 60) was 125 % of control and the T/C [3] was 129 % of control. The T/C (dose: 25.0 mg/kg/injection, schedule: Q01DX009 (ip), vehicle: saline with Tween-80, evaluated on day 45) was 142 % of control, the T/C (dose: 25.0 mg/kg/injection, schedule: Q01DX009 (ip), vehicle: saline with Tween-80, evaluated on day 60) was 135 % of control and the T/C [5] was 128 % of control. The survivor count [6] was 7 of 10.

In the case of `CC1(C)N=C(N)N=C(N)N1c1ccc(F)c(C(F)(F)F)c1`, the survivor count (dose: 12.5 mg/kg/injection, schedule: Q01DX009 (ip), vehicle: saline) was 9 of 10, the T/C (dose: 24.0 mg/kg/injection, schedule: Q01DX009 (ip), vehicle: saline) was 128 % of control and the survivor count [7] was 6 of 10. The T/C (dose: 48.0 mg/kg/injection, schedule: Q01DX009 (ip), vehicle: saline) was 127 % of control, the survivor count [8] was 10 of 10 and the survivor count (dose: 96.0 mg/kg/injection, schedule: Q01DX009 (ip), vehicle: saline) was 3 of 10. For the same compound, the survivor count [1] was 2 of 10.

With `CC1=C/C(O)CC(=O)Cc2nc(co2)C(=O)N2CCC=C2C(=O)OC(C(C)C)C(C)/C=C\C(=O)NC/C=C\1` (centres undefined) the survivor count [9] was 10 of 10 and the survivor count (dose: 4.0 micrograms/kg/injection, schedule: Q01DX009 (ip), vehicle: saline) was 10 of 10.

With `CCOC(=O)Nc1ccc([N+](=O)[O-])cc1` the survivor count [9] was 6 of 10.

For `O=c1oc(-c2ccc(Cl)cc2)nc2cc(Cl)ccc12`, the survivor count [5] was 3 of 10 and the survivor count (dose: 100.0 mg/kg/injection, schedule: Q01DX009 (ip), vehicle: Klucel (hydroxypropylcellulose) (HPC)) was 0 of 10.

`O=[N+]([O-])c1ccc(/C=N\Nc2ccc([N+](=O)[O-])cn2)cc1` was tested, and the survivor count [2] was 10 of 10, the survivor count [3] was 10 of 10 and the survivor count [5] was 10 of 10.

For `COc1cccc(/C=N/NC(=O)c2ccccc2N2CCCC2)c1O`, the survivor count (dose: 12.5 mg/kg/injection, schedule: Q01DX009 (ip), vehicle: olive oil, sesame oil, peanut oil) was 10 of 10, the survivor count (dose: 25.0 mg/kg/injection, schedule: Q01DX009 (ip), vehicle: olive oil, sesame oil, peanut oil) was 10 of 10 (2×) and the survivor count (dose: 50.0 mg/kg/injection, schedule: Q01DX009 (ip), vehicle: olive oil, sesame oil, peanut oil) was 10 of 10. For the same compound, the survivor count (dose: 100.0 mg/kg/injection, schedule: Q01DX009 (ip), vehicle: olive oil, sesame oil, peanut oil) was 10 of 10, the survivor count (dose: 200.0 mg/kg/injection, schedule: Q01DX009 (ip), vehicle: olive oil, sesame oil, peanut oil) was 10 of 10 and the survivor count (dose: 400.0 mg/kg/injection, schedule: Q01DX009 (ip), vehicle: olive oil, sesame oil, peanut oil) was 7 of 10.

For `O=[N+]([O-])c1ccc2nc(-c3ccccc3)c(-c3ccccc3)nc2c1`, the survivor count [9] was 9 of 10.

For `CNC(=S)N/N=C1/c2cc(Cl)ccc2-c2c(Cl)cc(Cl)cc21`, the survivor count (dose: 12.5 mg/kg/injection, schedule: Q01DX009 (ip), vehicle: saline with Tween-80) was 6 of 6, the survivor count [4] was 6 of 6 and the survivor count (dose: 50.0 mg/kg/injection, schedule: Q01DX009 (ip), vehicle: saline with Tween-80) was 6 of 6. The survivor count [6] was 6 of 6, the survivor count (dose: 200.0 mg/kg/injection, schedule: Q01DX009 (ip), vehicle: saline with Tween-80) was 6 of 6 and the survivor count (dose: 400.0 mg/kg/injection, schedule: Q01DX009 (ip), vehicle: saline with Tween-80) was 6 of 6. For the same compound, the survivor count (dose: 800.0 mg/kg/injection, schedule: Q01DX009 (ip), vehicle: saline with Tween-80) was 6 of 6.

For `CCO/C=C1\SC(=S)N(c2ccc(C(=O)O)cc2)C1=O`, the survivor count [6] was 8 of 10, the survivor count (dose: 100.0 mg/kg/injection, schedule: Q04DX003 (ip), vehicle: saline with Tween-80) was 9 of 10 and the survivor count (dose: 200.0 mg/kg/injection, schedule: Q04DX003 (ip), vehicle: saline with Tween-80) was 6 of 10. For the same compound, the survivor count (dose: 400.0 mg/kg/injection, schedule: Q04DX003 (ip), vehicle: saline with Tween-80) was 2 of 10.

With `Brc1cc(Br)c(-c2c(Br)cc(Br)cc2Br)c(Br)c1` the survivor count [9] was 10 of 10.

`CC(=O)Nc1cc(F)c([N+](=O)[O-])cc1[N+](=O)[O-]` was tested, and the survivor count (dose: 5.0 mg/kg/injection, schedule: Q01DX009 (ip), vehicle: saline with Tween-80) was 6 of 6 and the survivor count (dose: 10.0 mg/kg/injection, schedule: Q01DX009 (ip), vehicle: saline with Tween-80) was 6 of 6.

`COC(=O)C(CCCN=C(N)N)NC(=O)OCc1ccccc1` (centres undefined) was tested, and the survivor count (dose: 400.0 mg/kg/injection, schedule: Q04DX003 (ip), vehicle: saline) was 0 of 7.

In the case of `CN1c2c(nc(N)[nH]c2=O)NCC1CCNc1ccc(C(=O)NC(CCC(=O)O)C(=O)O)cc1` (centres undefined), the survivor count (dose: 200.0 mg/kg/injection, schedule: Q01DX009 (ip), vehicle: Klucel (hydroxypropylcellulose) (HPC)) was 8 of 10, the survivor count [9] was 10 of 10 and the survivor count (dose: 800.0 mg/kg/injection, schedule: Q01DX009 (ip), vehicle: Klucel (hydroxypropylcellulose) (HPC)) was 10 of 10. The T/C (dose: 800.0 mg/kg/injection, schedule: Q01DX009 (ip), vehicle: sodium bicarbonate) was 127 % of control.

In the case of `COc1cc2cc[n+]3c(C)c4cc5c(cc4cc3c2cc1OC)OCO5` (tested in a mixture with another compound), the survivor count [7] was 10 of 10 and the survivor count [8] was 9 of 10.
